# Results: PubChem BioAssay AID2685 (National Center for Advancing Translational Sciences (NCATS), 2010)
# Out of some 320,000 compounds screened, about 2,100 (0.66%) were called active. The shares of active, inactive and inconclusive entries below differ from those in the screen. The call rests on the fitted dose curve; in most records, active means well fitted inhibition curve with a large enough effect in the signal ratio, with a control signal flat (not every such curve was filed as active); inconclusive means small, poorly fitted or top-dose-only effect, or effect the other way, or a change in a side signal; inactive means flat fitted curve, though single readings scatter; the % refers to the signal ratio. Potencies of inconclusive entries are doubtful fits and often do not repeat.
# Assay: qHTS Assay for Lipid Storage Modulators in Drosophila S3 Cells
# Conditions: BODIPY lipid droplet fluorescence, 18-24 h, cells fed with added oleic acid; lipid storage change, negative = inhibition: at 46.1 µM (top of the series) unless noted
# Method in brief: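 Drosophila S3 cells loaded with oleic acid (400 uM, as added) and compounds at several concentrations; lipid droplets imaged by 488-nm laser-scanning cytometry, 500–530 nm intensity and object ratio to cell channel. Percent activity normalized to 20 uM Triacsin C.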
# On the % scale 0 is the no-effect control and ±100 the full control effect; potency means the concentration at half of the fitted maximal effect.
SMILES,"lipid storage change, negative = inhibition",Potency
CCOc1cc2c(cc1OCC)C(c1ccc(C(=O)O)cc1)NCC2 (centres undefined),inconclusive: -3%,
O=C(COC(=O)c1ccc[nH]c1=O)NC1CCCCCCC1,inconclusive: 34.1%,
Cc1cccc(NC2=NC(=S)N(c3cccc(C(=O)O)c3)C23CCCCC3)c1,inconclusive: -14.6%,
COc1ccc(N2CCN(C(=O)c3cc(C4CC4)nn3-c3ccccc3)CC2)cc1,,"inconclusive: 1.46 µM [falling, full curve]"
CCOc1ccc(C(=O)Nc2ccccc2N2CCOCC2)cc1,inconclusive: 5.5%,
Cc1ccc(NC(=O)C2CCCN(c3ncccn3)C2)cc1F (centres undefined),inconclusive: 2.25%,
Fc1ccc(/C=N\Nc2cccc(F)c2)cc1,inconclusive: 104%,
O=C(Nc1c(C(=O)N2CCN(c3ccccn3)CC2)oc2ccccc12)c1cccc([N+](=O)[O-])c1,,"inconclusive: 16.4 µM [falling, single point]"
CCOc1ccc2[nH]c(C)c(CN3CCOCC3)c(=O)c2c1,inconclusive: -33.7%,
CCOc1ccccc1NC(=O)c1ccc(S(=O)(=O)N(C)C)cc1,,"inconclusive: 0.651 µM [activator, full curve]"
O=C(CCN1CCc2ccccc2C1)Nc1ccccc1,,"inconclusive: 25.9 µM [activator, single point]"
CO/N=C/c1ccc(N2CCN(C(=O)c3ccc(Cl)cc3Cl)CC2)c([N+](=O)[O-])c1,inconclusive: -28.8%,
CCSc1nc2c([nH]c3ccccc32)c(=O)n1C,inconclusive: -0.0296%,
CCCCNC(=O)N1c2ccccc2CC1C (centres undefined),,"inconclusive: 0.92 µM [falling, full curve, poor fit]"
Nc1c(C(=O)Nc2ccccc2)c2nc3ccccc3nc2n1CCCN1CCOCC1,inconclusive: -93.4%,
Cc1nn(-c2ccccc2)c2sc(C(=O)n3cccn3)cc12,inconclusive: -10.2%,
O=c1[nH]c2ccc(Br)cc2c(-c2ccccc2)c1CN1CCOCC1,inconclusive: -2.56% [at 9.22 µM],
O=c1c2ccccc2[nH]c(=S)n1CCN1CCCC1,inconclusive: 1.23%,
CN(C(=O)CN1C(=O)CCSc2ccc(S(=O)(=O)N3CCCC3)cc21)c1ccccc1,inconclusive: 21.7%,
C[C@H](CCC(=O)NCC(=O)O)[C@H]1CC[C@H]2[C@@H]3[C@H](O)C[C@@H]4C[C@H](O)CC[C@]4(C)[C@H]3C[C@H](O)[C@]12C,inconclusive: 27.1%,
COc1ccc(C(C)n2c(C)c3c(C)nnc(C)c3c2C)cc1 (centres undefined),inconclusive: -59.3%,
Cc1ccc(NC(=O)c2cccc(S(=O)(=O)N3CCCc4ccccc43)c2)nc1,,"inconclusive: 2.31 µM [falling, partial curve, poor fit]"
O=C(c1nn2c(C(F)(F)F)cc(-c3ccccc3)nc2c1Cl)N1CCN2CCCC2C1 (centres undefined),inconclusive: 29%,
O=C(Nc1ccc(-c2cn3ccsc3n2)cc1)C1CCCC1,inconclusive: 19.8%,
CC(C)c1ccc(NC(=O)CSc2ncccc2C(=O)Oc2cccc([N+](=O)[O-])c2)cc1,inconclusive: -17.4%,

SMILES,"lipid storage change, negative = inhibition",Potency
Cc1ccc(N2NC(=O)/C(=C/c3ccc(-c4ccc(Cl)c(C(=O)O)c4)o3)C2=O)cc1,inconclusive: 46.8%,
OCC1(Cc2ccccc2F)CCCN(CC2CCCCC2)C1 (centres undefined),,"inconclusive: 6.51 µM [activator, single point]"
COc1ccc2[nH]c(=O)c(CN(C(=O)C(C)C)c3ccccc3OC)cc2c1,,"inconclusive: 9.2 µM [activator, partial curve]"
O=C(Nc1cccc2cccnc12)c1ccc(Br)o1,,"inconclusive: 2.91 µM [rising, partial curve]"
CC(=O)Nc1cccc(S(=O)(=O)N2CCCCCC2)c1,inconclusive: 17.7%,
CCN(CC)S(=O)(=O)c1cccc(-c2n[nH]c(=S)n2/N=C/c2ccc(C(=O)OC)cc2)c1,inconclusive: 54.7%,
CC(C)CNC(=O)C(=O)Nc1ccc(N(C)C)cc1,,"inconclusive: 4.11 µM [rising, full curve, poor fit]"
COc1cccc(C2=NOC(C(=O)N3CCN(C(=O)c4ccco4)CC3)C2)c1 (centres undefined),inconclusive: 28.8%,
Cc1cc(NS(=O)(=O)c2ccc(NC(=O)c3cc(-c4cccnc4)nc4ccc(Cl)cc34)cc2)no1,inconclusive: -24.5%,
CCNc1sc(C(=O)OCC)c(N)c1C#N,inconclusive: -6.9%,
CC(C)NC(=O)C1CCCN(S(C)(=O)=O)C1 (centres undefined),,"inconclusive: 32.6 µM [falling, single point]"
COc1ccc(CC(=O)Nc2cc(S(=O)(=O)N3CCCCC3)ccc2C)cc1,,"inconclusive: 29.1 µM [falling, single point]"
Cc1cccc(NC(=O)CCn2c(=O)oc3ccccc32)c1,inconclusive: 41.7%,
COC(=O)Nc1ccc(S(=O)(=O)N2CCCC(C(=O)NC3CCCCC3)C2)cc1 (centres undefined),inconclusive: 0.219%,
CN(Cc1ccccc1)C(=O)CCn1c(=O)c2cccn2c2cccnc21,,"inconclusive: 13 µM [falling, partial curve]"
CC(=O)c1sc(=S)n(-c2ccc(Cl)cc2)c1C,,"inconclusive: 25.9 µM [activator, single point]"
O=[N+]([O-])c1ccc(N2CCCC2)cc1NC(c1ccccc1)c1ccccc1,,"inconclusive: 2.31 µM [activator, full curve, poor fit]"
COC(=O)CCC(=O)OC1(C)C(=O)C2=CN(CCCOC(C)C)C(c3ccc(OC)cc3)=CC2=C(Br)C1=O (centres undefined),inconclusive: -54.9%,
COc1ccc(OC)c(/C=C/C(=O)OCC(=O)NCc2cccs2)c1,inconclusive: 4.24%,
O=C(CN(C(=O)c1csnn1)c1cccc2ccccc12)NCc1ccccc1,inconclusive: 196%,
COc1ccc(/C=C/C(=O)NC2CCCCCCC2)cc1S(=O)(=O)N1CCOCC1,inconclusive: -8.11%,
Cc1ccc(SCC(=O)N=C2NC(=O)CS2)cc1,inconclusive: -5.09%,
Cc1ccc(C)c(NC(=O)CN(C)C(=O)c2ccc(Cl)nc2)c1,inconclusive: -133%,
Clc1cccc(-c2nnc(-c3ccno3)o2)c1,inconclusive: 17.4%,
CCN(CC(=O)NCC1CCCO1)S(=O)(=O)c1ccc(Cl)cc1 (centres undefined),inconclusive: 8.34%,

# Reformatted: entries from further up.
SMILES | lipid storage change, negative = inhibition | Potency
CCOc1cc2c(cc1OCC)C(c1ccc(C(=O)O)cc1)NCC2 (centres undefined) | inconclusive: -3% | 
CN(Cc1ccccc1)C(=O)CCn1c(=O)c2cccn2c2cccnc21 |  | inconclusive: 13 µM [falling, partial curve]
O=C(CN(C(=O)c1csnn1)c1cccc2ccccc12)NCc1ccccc1 | inconclusive: 196% | 

# Later entries:

SMILES,"lipid storage change, negative = inhibition",Potency
COc1ccc(C2=CC(c3ccc(OC)c(OC)c3)NC(=S)N2)cc1 (centres undefined),,"inconclusive: 0.92 µM [activator, partial curve]"
Cc1cc(C)n2ncc(C(=O)NCCc3ccccc3)c2n1,,"inconclusive: 0.517 µM [rising, full curve]"
O=C1C(Cl)=C(N2CCCCCC2)C(=O)N1c1ccc(Br)cc1,inconclusive: -23.2%,
CC(C)CN(CCCNC(=O)CN1C(=O)COc2ccc(S(=O)(=O)N3CCOCC3)cc21)CC(C)C,,"inconclusive: 6.51 µM [falling, partial curve, poor fit]"
Cc1cc(C(=O)NC(C)C2CCCO2)no1 (centres undefined),,"inconclusive: 29.1 µM [cytotoxic, single point]"
CCCCC(=O)NC1=C(C(=O)OC)SCC1,inconclusive: -33.4%,
CC(=O)c1ccc(NC(=O)c2cnn3ccccc23)cc1,inconclusive: -10.8%,
O=C1CCC(=O)N1CC(=O)N1CCCc2ccccc21,,"inconclusive: 0.146 µM [falling, full curve, poor fit]"
O=C1CCC([N+](=O)[O-])C(c2ccccc2Br)N1 (centres undefined),,"inconclusive: 3.26 µM [activator, full curve]"
COc1ccc(OC)c(NC(=O)c2ccccc2NC(=O)c2ccco2)c1,inconclusive: 16%,
Nc1nc(SCC(=O)NCc2ccccc2Cl)[nH]c(=O)c1NC(=O)c1ccccc1F,,"inconclusive: 2.59 µM [activator, partial curve]"
COC(=O)NC(NC(=S)Nc1cccc(C)c1)C(Cl)(Cl)Cl (centres undefined),inconclusive: 4.88%,
CCOC(=O)c1oc2c(C)c(O)ccc2c(=O)c1-c1nncn1-c1ccccc1,inconclusive: -0.0506%,
Cc1c(C(=O)N2CCN(Cc3cccs3)CC2)oc2ccccc12,,"inconclusive: 6.51 µM [falling, partial curve]"
C/C(CC(=O)Nc1cc(Cl)ccc1Cl)=N\NC(=O)COc1cccc(C)c1,,"inconclusive: 23.1 µM [falling, single point]"
CCc1ccc2[nH]c(=O)c(CN(Cc3ccco3)S(=O)(=O)c3ccc4c(c3)OCCO4)cc2c1,inconclusive: 21.6%,
Cc1cccc(C)c1OCc1cc(C(=O)N2CCN3CCCC3C2)no1 (centres undefined),,"inconclusive: 6.51 µM [activator, single point]"
Cc1cc(C)cc(Oc2ccc(NC(=O)C3CC=CCC3C(=O)O)cc2)c1 (centres undefined),inconclusive: 7.87%,
CN(C)CCN(C(=O)c1ccco1)c1nc2cc3c(cc2s1)OCCO3,,"inconclusive: 4.11 µM [activator, partial curve]"
CC(=O)Nc1ccc(S(=O)(=O)NNC(=O)c2ccc3c(c2)OCO3)cc1,,"inconclusive: 20.6 µM [activator, single point]"
CCSc1nsc(NC(=O)Nc2ccccc2F)n1,inconclusive: -53.2%,
O=[N+]([O-])c1ccc(CSc2nnc3ccccn23)cc1,inconclusive: 22.7%,
CCOC(=O)c1c(NC(=O)CN(CC)CC)sc2c1CCN(C(=O)OCC)C2,,"inconclusive: 0.366 µM [activator, partial curve, poor fit]"
COCCSc1nnc(NC(=O)COc2ccc3c(c2)OCO3)s1,inconclusive: 21.7%,
